No constants are given. Whether binding was seen depends on the method and setting. Some entries that bind do so weakly or less than the wild type.
Molecular target: activated factor XI (FXIa) (human) (UniProt P03951)
Test: sandwich ELISA for the complex in human plasma: FXI mAb capture, polyclonal C1 inhibitor antibody detection

Sequences of proteins named here, by UniProt entry; tags and fusion partners are left off. Residues count along the entry.
UniProt P03951, residues 19-625: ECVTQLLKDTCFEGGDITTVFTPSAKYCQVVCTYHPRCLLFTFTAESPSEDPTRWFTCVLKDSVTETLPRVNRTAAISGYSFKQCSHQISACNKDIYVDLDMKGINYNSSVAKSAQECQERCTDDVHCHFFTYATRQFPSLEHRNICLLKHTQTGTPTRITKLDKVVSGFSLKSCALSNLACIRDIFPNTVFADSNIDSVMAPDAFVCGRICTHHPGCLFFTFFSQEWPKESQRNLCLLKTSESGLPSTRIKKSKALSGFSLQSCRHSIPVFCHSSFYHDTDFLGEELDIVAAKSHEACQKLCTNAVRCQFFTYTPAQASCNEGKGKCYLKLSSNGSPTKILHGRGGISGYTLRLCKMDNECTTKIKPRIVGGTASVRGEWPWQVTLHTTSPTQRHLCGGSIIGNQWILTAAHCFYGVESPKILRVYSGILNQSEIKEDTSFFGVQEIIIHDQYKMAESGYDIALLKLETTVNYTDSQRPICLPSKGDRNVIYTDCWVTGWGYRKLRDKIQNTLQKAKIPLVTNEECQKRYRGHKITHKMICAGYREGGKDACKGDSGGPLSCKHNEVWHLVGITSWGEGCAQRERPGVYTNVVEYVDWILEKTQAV

B1: C1 esterase inhibitor (C1inh) (protein, human, UniProt P05155 23-500, looked up)
chain: NPNATSSSSQDPESLQDRGEGKVATTVISKMLFVEPILEVSSLPTTNSTTNSATKITANTTDEPTTQPTTEPTTQPTIQPTQPTTQLPTDSPTQPTTGSFCPGPVTLCSDLESHSTEAVLGDALVDFSLKLYHAFSAMKKVETNMAFSPFSIASLLTQVLLGAGENTKTNLESILSYPKDFTCVHQALKGFTTKGVTSVSQIFHSPDLAIRDTFVNASRTLYSSSPRVLSNNSDANLELINTWVAKNTNNKISRLLDSLPSDTRLVLLNAIYLSAKWKTTFDPKKTRMEPFHFKNSVIKVPMMNSKKYPVAHFIDQTLKAKVGQLQLSHNLSLVILVPQNLKHRLEDMEQALSPSVFKAIMEKLEMSKFQPTLLTLPRIKVTTSQDMLSIMEKLEFFDFSYDLNLCGLTEDPDLQVSAMQHQTVLELTETGVEAAAASAISVARTLLVFEVQQPFLFVLWDQQHKFPVFMGRVYDPRA
- binding: binds

Source: patent US20170363644A1
